Results published in patent publication US20140154252A1.
Results are given in words; binding and its absence hold for the method and conditions named. Some entries that bind do so weakly or less than the wild type.

Amino acid sequences for entries named in this document (tags omitted). Residues count along the entry.
UniProt P10747, residues 19-220: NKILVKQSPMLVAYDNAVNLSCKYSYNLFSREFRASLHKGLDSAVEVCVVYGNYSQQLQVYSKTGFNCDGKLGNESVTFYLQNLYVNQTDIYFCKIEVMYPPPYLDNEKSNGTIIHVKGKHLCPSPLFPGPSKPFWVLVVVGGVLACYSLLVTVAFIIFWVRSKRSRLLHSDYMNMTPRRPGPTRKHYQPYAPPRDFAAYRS

B1: 2H7-sss-hIgG-L6-2e12 (H6 linker, 2e12 VL-VH) (bispecific antibody, not shown: a dimerising Fc or GST)
chain (part 1 of 2): QIVLSQSPAILSASPGEKVTMTCRASSSVSYMHWYQQKPGSSPKPWIYAPSNLASGVPARFSGSGSGTSYSLTISRVEAEDAATYYCQQWSFNPPTFGAGTKLELKDGGGSGGGGSGGGGSSQAYLQQSGAESVRPGASVKMSCKASGYTFTSYNMHWVKQTPRQGLEWIGAIYPGNGDTSYNQKFKGKATLTVDKSSSTAYMQLSSLTSEDSAVYFCARVVYYSNSYWYFDVWGTGTTVTVSEPKSSDKTHTSPPSP
chain (part 2 of 2): GGGGSGGGGSGGGGSGNSDIVLTQSPASLAVSLGQRATISCRASESVEYYVTSLMQWYQQKPGQPPKLLISAASNVESGVPARFSGSGSGTDFSLNIHPVEEDDIAMYFCQQSRKVPWTFGGGTKLEIKRGGGGSGGGGSGGGGSQVQLKESGPGLVAPSQSLSITCTVSGFSLTGYGVNWVRQPPGKGLEWLGMIWGDGSTDYNSALKSRLSITKDNSKSQVFLKMNSLQTDDTARYYCARDGYSNFHYYVMDYWGQGTSVTVSS
B2: 2H7-sss-hIgG-L3-2e12 (H3 linker, 2e12 VL-VH) (bispecific antibody, not shown: a dimerising Fc or GST)
chain (part 1 of 2): B1 chain (part 1 of 2)
chain (part 2 of 2): NYGGGGSGNSDIVLTQSPASLAVSLGQRATISCRASESVEYYVTSLMQWYQQKPGQPPKLLISAASNVESGVPARFSGSGSGTDFSLNIHPVEEDDIAMYFCQQSRKVPWTFGGGTKLEIKRGGGGSGGGGSGGGGSQVQLKESGPGLVAPSQSLSITCTVSGFSLTGYGVNWVRQPPGKGLEWLGMIWGDGSTDYNSALKSRLSITKDNSKSQVFLKMNSLQTDDTARYYCARDGYSNFHYYVMDYWGQGTSVTVSS
B3: 2H7-sss-hIgG-L5-2e12 (H5 linker, 2e12 VL-VH) (bispecific antibody, not shown: a dimerising Fc or GST)
chain (part 1 of 2): B1 chain (part 1 of 2)
chain (part 2 of 2): NYGGGGSGGGGSGNSDIVLTQSPASLAVSLGQRATISCRASESVEYYVTSLMQWYQQKPGQPPKLLISAASNVESGVPARFSGSGSGTDFSLNIHPVEEDDIAMYFCQQSRKVPWTFGGGTKLEIKRGGGGSGGGGSGGGGSQVQLKESGPGLVAPSQSLSITCTVSGFSLTGYGVNWVRQPPGKGLEWLGMIWGDGSTDYNSALKSRLSITKDNSKSQVFLKMNSLQTDDTARYYCARDGYSNFHYYVMDYWGQGTSVTVSS
B4: 2H7-sss-hIgG-L2-2e12 (H2 linker, 2e12 VL-VH) (bispecific antibody, not shown: a dimerising Fc or GST)
chain (part 1 of 2): B1 chain (part 1 of 2)
chain (part 2 of 2): GGGGSGNSDIVLTQSPASLAVSLGQRATISCRASESVEYYVTSLMQWYQQKPGQPPKLLISAASNVESGVPARFSGSGSGTDFSLNIHPVEEDDIAMYFCQQSRKVPWTFGGGTKLEIKRGGGGSGGGGSGGGGSQVQLKESGPGLVAPSQSLSITCTVSGFSLTGYGVNWVRQPPGKGLEWLGMIWGDGSTDYNSALKSRLSITKDNSKSQVFLKMNSLQTDDTARYYCARDGYSNFHYYVMDYWGQGTSVTVSS
B5: 2H7-sss-hIgG-L4-2e12 (H4 linker, 2e12 VL-VH) (bispecific antibody, not shown: a dimerising Fc or GST)
chain (part 1 of 2): B1 chain (part 1 of 2)
chain (part 2 of 2): GGGGSGGGGSGNSDIVLTQSPASLAVSLGQRATISCRASESVEYYVTSLMQWYQQKPGQPPKLLISAASNVESGVPARFSGSGSGTDFSLNIHPVEEDDIAMYFCQQSRKVPWTFGGGTKLEIKRGGGGSGGGGSGGGGSQVQLKESGPGLVAPSQSLSITCTVSGFSLTGYGVNWVRQPPGKGLEWLGMIWGDGSTDYNSALKSRLSITKDNSKSQVFLKMNSLQTDDTARYYCARDGYSNFHYYVMDYWGQGTSVTVSS
B6: 2H7-sss-hIgG-L1-2e12 (H1 linker, 2e12 VL-VH) (bispecific antibody, not shown: a dimerising Fc or GST)
chain (part 1 of 2): B1 chain (part 1 of 2)
chain (part 2 of 2): NSDIVLTQSPASLAVSLGQRATISCRASESVEYYVTSLMQWYQQKPGQPPKLLISAASNVESGVPARFSGSGSGTDFSLNIHPVEEDDIAMYFCQQSRKVPWTFGGGTKLEIKRGGGGSGGGGSGGGGSQVQLKESGPGLVAPSQSLSITCTVSGFSLTGYGVNWVRQPPGKGLEWLGMIWGDGSTDYNSALKSRLSITKDNSKSQVFLKMNSLQTDDTARYYCARDGYSNFHYYVMDYWGQGTSVTVSS

molecular target: CD28 presented on CHO cells (UniProt P10747); assay: flow cytometry on CD28 CHO cells, purified protein at 0.72 ug/ml

| binding | Binder |
| --- | --- |
| binds | B1 |
| binds | B2 |
| binds | B3 |
| binds | B4 |
| binds | B5 |
| binds | B6 |

molecular target: CD28 presented on CHO cells (UniProt P10747); assay: flow cytometry on CD28 CHO cells, protein A purified protein at 0.72 ug/ml, FITC goat anti-human IgG

| binding | Binder |
| --- | --- |
| binds | B1 |
| binds | B2 |
| binds | B3 |
| binds | B4 |
| binds | B5 |
| binds | B6 |
